These results are taken from PMC7819943, “Rice protein-binding microarrays: a tool to detect cis-acting elements near promoter regions in rice”.

This is one part of the list.

The test concerns the target T1, OsSMF1 (Oryza sativa, UniProt Q6ZLB0 1-436).
T1 sequence: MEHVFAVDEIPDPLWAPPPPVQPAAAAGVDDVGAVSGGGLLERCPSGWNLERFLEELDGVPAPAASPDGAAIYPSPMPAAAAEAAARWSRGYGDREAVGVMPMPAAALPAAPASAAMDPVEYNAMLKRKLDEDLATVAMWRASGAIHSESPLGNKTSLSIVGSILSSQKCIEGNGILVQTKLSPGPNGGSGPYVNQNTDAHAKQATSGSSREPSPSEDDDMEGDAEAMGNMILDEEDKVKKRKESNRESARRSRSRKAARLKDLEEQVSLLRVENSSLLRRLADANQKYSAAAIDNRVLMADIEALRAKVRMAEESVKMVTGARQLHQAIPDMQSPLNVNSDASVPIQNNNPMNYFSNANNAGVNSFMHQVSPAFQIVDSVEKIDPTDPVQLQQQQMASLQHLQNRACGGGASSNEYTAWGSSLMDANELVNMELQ
As to the kind of experiment: protein-binding microarray (RPBM); PBS, 2% BSA, 51.3 ng/ul salmon testes DNA, 50 uM zinc acetate, 200 nM TF, 25 C, 1 h; high values mean tight binding. The settings on record: protein: recombinant; tags: N-terminal polyhistidine and DsRed monomer fusion (pET32a); chain copies: 2; label: CyDye5-dUTP incorporated in the synthesized complementary strand; 3' TTTTT single-stranded linker to array surface; dsDNA, one strand shown. In outline:
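Binding signal is defined as the fluorescence intensity of each feature in arbitrary units, read on an Axon 4000B scanner. Transcription factors with N-terminal polyhistidine and DsRed fusions came from E. coli BL21-CodonPlus and were purified on Ni–NTA. They were incubated at 200 nM for 1 h at 25 °C on a custom Agilent array that had been made double-stranded with Cy5-dUTP, with 50 µM zinc acetate present, and the array was washed.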
“ACACTGCCACGTCAGCGCCACGTTAGCAAAACCGTCCTCCCGGAGTCACCTAGTGCAG”: the binding signal was 35500 fluorescence intensity (a.u.).

As for “AGGTACGCACACATGTCCACGTGCCCGGCTCTCCCGGCACCGGAGTCACCTAGTGCAG”, the binding signal was 3880 fluorescence intensity (a.u.).

As to “ATTTTGTAGGTTCTAGCCACGTAATTGCGCGTGCTACTCACGGAGTCACCTAGTGCAG”, the binding signal is 6950 fluorescence intensity (a.u.).

For the sequence “GAATGTTTGTCCACCAACCAGCAATGATGTGGACTTGTTGCGGAGTCACCTAGTGCAG”, the binding signal was 3140 fluorescence intensity (a.u.).

“TGATGATGTTGTCATTGCTCCGGTGCGCTCTTTGTGTGTGCGGAGTCACCTAGTGCAG”: the binding signal was 4470 fluorescence intensity (a.u.).

As for “TTGAACGCAGAGGAATGTATGACTGTATGAGACCCCAAGACGGAGTCACCTAGTGCAG”, the binding signal was 5280 fluorescence intensity (a.u.).

For the sequence “GAGTCGTTCGCGCCGTTCGGCCAGGTCATCGCCGCCACACCGGAGTCACCTAGTGCAG”, the binding signal is 8670 fluorescence intensity (a.u.).

With “ACAACAGGAATCCACCGTGACTTGCTTCACCACCACCCTGCGGAGTCACCTAGTGCAG”, the binding signal is 3160 fluorescence intensity (a.u.).

Consider “TCAGCGAATTGGTACGTACCCTTGTACGTGTTGACGCCATCGGAGTCACCTAGTGCAG”, for which the binding signal was 3650 fluorescence intensity (a.u.).

With “TGTGCAATGTCATCAATTTATGTATTGTGTGTACCCTATCCGGAGTCACCTAGTGCAG”, the binding signal was 6160 fluorescence intensity (a.u.).

Take “AGTACATAACATACCTTCATCTTTCGACCAGCTCATCTTTCGGAGTCACCTAGTGCAG”: the binding signal was 3830 fluorescence intensity (a.u.).

“CAAACTGCAACTCCAATATCACATTTTCTTTCTCTTTTCCCGGAGTCACCTAGTGCAG”: the binding signal was 19700 fluorescence intensity (a.u.).

Take “GTTCTGCGCGGCGCACCCCACCGACGGCCGCGTCCGCGTCCGGAGTCACCTAGTGCAG”: the binding signal is 3260 fluorescence intensity (a.u.).

With “ATGTCGAGCACCTGACCGCCGGTCACGTAGCGGCGGCGGCCGGAGTCACCTAGTGCAG”, the binding signal was 3620 fluorescence intensity (a.u.).

As to “GCTAGCTTGATGACCTAGCAGCTTCATCGATTCTTGCGTGCGGAGTCACCTAGTGCAG”, the binding signal was 3950 fluorescence intensity (a.u.).

As for “CGGCGACTACTACCTCATCGTCGTTGCTGACACCGAGGTCCGGAGTCACCTAGTGCAG”, the binding signal is 5440 fluorescence intensity (a.u.).

In the case of “GGGAAAGATGTCGTGGACTTGATTATACATACCGGTCAGACGGAGTCACCTAGTGCAG”, the binding signal was 3290 fluorescence intensity (a.u.).

As for “CTAAAGATAATGCTATGCAAGTCGAGACAGCTCGATGAGCCGGAGTCACCTAGTGCAG”, the binding signal is 3230 fluorescence intensity (a.u.).

Turning to “CTGTAGCAAATTAGAAGCAAAAGTGTTAGTTCAAATTGTGCGGAGTCACCTAGTGCAG”, the binding signal was 3320 fluorescence intensity (a.u.).

Turning to “CTCGTTTCTGTCTCGTACGTGCATGGGTCGATGATGACCACGGAGTCACCTAGTGCAG”, the binding signal is 3820 fluorescence intensity (a.u.).

“GGTCCATGGTAATGGTGTAGTCGTGGTGGTTTTGTTTCTCCGGAGTCACCTAGTGCAG”: the binding signal was 3980 fluorescence intensity (a.u.).

As for “TCAGCTAGTCTCCTTTATGCAATTTCTTTTATCTTCTCTTCGGAGTCACCTAGTGCAG”, the binding signal is 26400 fluorescence intensity (a.u.).

In the case of “AATTTGTAGAACTTGTCGATTGTAAACCGTAGGATCGAGCCGGAGTCACCTAGTGCAG”, the binding signal was 15700 fluorescence intensity (a.u.).

Regarding “TTGGGTGGCGTGCGTCATCCACAGTAGCCGTCGTTGCGTCCGGAGTCACCTAGTGCAG”, the binding signal is 12200 fluorescence intensity (a.u.).

On to “AATTAAATGAACCCATCGTCATCAAGCACTAAGGTCGGCACGGAGTCACCTAGTGCAG”, for which the binding signal is 3540 fluorescence intensity (a.u.).

With “TGAATACGTCCGGAATCGGTATGGGCGATGCTATCTCCTCCGGAGTCACCTAGTGCAG”, the binding signal is 3400 fluorescence intensity (a.u.).

As for “AGCTGGTCACTGTCTTGCTGCTGCTGATATCATCAGCACGCGGAGTCACCTAGTGCAG”, the binding signal is 3660 fluorescence intensity (a.u.).

Consider “TTTACTGAAGGACTATCTGATATCCAGTTTATCCACATCACGGAGTCACCTAGTGCAG”, for which the binding signal is 3340 fluorescence intensity (a.u.).

On to “TAGTAGATAGCTTTGCTCTCTCTCTTCATTTAATATATTCCGGAGTCACCTAGTGCAG”, for which the binding signal was 4540 fluorescence intensity (a.u.).

Consider “GCGGCGCGCGTGGGGAGGAGAGGACGGGCGGCTAGGGTTTCGGAGTCACCTAGTGCAG”, for which the binding signal was 3320 fluorescence intensity (a.u.).

As to “CAAACTTTGCACCTCTCTTTGCCGAGATGACACATGCTTTCGGAGTCACCTAGTGCAG”, the binding signal is 5430 fluorescence intensity (a.u.).

In the case of “GCCACTTTCACAAAGGAAAACAAAAGATAGGTGAGTCGGACGGAGTCACCTAGTGCAG”, the binding signal was 4340 fluorescence intensity (a.u.).

Regarding “TTACATCGCGGGAGGCGTCTGTCCGTGTCACGCACTGACCCGGAGTCACCTAGTGCAG”, the binding signal is 3510 fluorescence intensity (a.u.).

“CTGCAAAAGTATAAGAATCAGTAAATTCTTGCCGTGTAGACGGAGTCACCTAGTGCAG”: the binding signal was 28500 fluorescence intensity (a.u.).

Take “GAAGTGGCGGCCCTTGGCGGAGAGAATGGCATGGCGAGAGCGGAGTCACCTAGTGCAG”: the binding signal is 65100 fluorescence intensity (a.u.).

As to “TCGCCGCGCGGCTTGCCGTGACACCGTGACACGCCATCTTCGGAGTCACCTAGTGCAG”, the binding signal is 8540 fluorescence intensity (a.u.).

In the case of “GGATCGACCGGCTTTTGGCTGACAGGCGATGGCTAGAGCACGGAGTCACCTAGTGCAG”, the binding signal is 5780 fluorescence intensity (a.u.).

On to “GAAAATACGCCTTCGACAGCAGCTGACGTATTCCTCGCTTCGGAGTCACCTAGTGCAG”, for which the binding signal is 5660 fluorescence intensity (a.u.).

Consider “GAGGTGGAAATGGGAGGGGAAGAAGAGGCTGACATGGTGACGGAGTCACCTAGTGCAG”, for which the binding signal was 3980 fluorescence intensity (a.u.).

In the case of “ACCACACCAACCAAATATGGTTGCGTTATTTCGTCACGCTCGGAGTCACCTAGTGCAG”, the binding signal was 3510 fluorescence intensity (a.u.).

As to “GGATCTCTTGCGTCCGCCTCCGCCGTGCGACCTCCGCATTCGGAGTCACCTAGTGCAG”, the binding signal was 3350 fluorescence intensity (a.u.).

For the sequence “GGCTGCCACCTCCGTTGCCGCGCCACCCTCGCCGCCGCAACGGAGTCACCTAGTGCAG”, the binding signal is 3910 fluorescence intensity (a.u.).
